Laboratory results from PMC12747936, “Rhamnose alleviates the proinflammatory response during endotoxemia via the CEACAM1/LGALS9-p38 axis” (Acta Biochimica et Biophysica Sinica, 2025).
These are yes or no findings as the source states them, for the method shown. Binding seen in cells or lysates may run through a third protein. Some binding calls cover weakened binding; strength is not graded here.

Chains of the proteins cited; added tags and fusions are not shown. Residues count along the entry.
UniProt P13688, residues 35-526: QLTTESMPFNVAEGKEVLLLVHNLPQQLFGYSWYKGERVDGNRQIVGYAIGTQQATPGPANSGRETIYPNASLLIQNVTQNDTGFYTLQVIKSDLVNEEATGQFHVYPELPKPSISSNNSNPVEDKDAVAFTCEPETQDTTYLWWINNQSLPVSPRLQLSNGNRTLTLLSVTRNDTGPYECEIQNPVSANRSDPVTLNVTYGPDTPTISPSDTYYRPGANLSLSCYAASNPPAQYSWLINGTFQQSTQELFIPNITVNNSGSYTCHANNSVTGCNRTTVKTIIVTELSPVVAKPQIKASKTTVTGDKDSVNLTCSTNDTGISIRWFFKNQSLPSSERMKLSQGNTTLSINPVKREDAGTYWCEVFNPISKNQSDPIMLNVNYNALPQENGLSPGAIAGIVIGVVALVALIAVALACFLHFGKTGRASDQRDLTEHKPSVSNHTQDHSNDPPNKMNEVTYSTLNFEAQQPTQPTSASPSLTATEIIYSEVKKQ

Columns and labels:
[1] = target: Flag-tagged WT CEACAM1 (UniProt P13688); test: co-IP; THP1-dMs cotransfected with HA-LGALS9 and Flag-CEACAM1 (WT or mutant), with or without rhamnose (20 uM); lysates incubated with anti-Flag magnetic beads overnight at 4°C, three washes with TBS; western blot
[2] = target: carcinoembryonic antigen-associated cell adhesion molecule 1 (CEACAM1), endogenous (human (endogenous in THP-1)) (UniProt P13688); test: co-IP; endogenous proteins in THP-1-dM lysates; cells treated with LPS (500 ng/mL) with or without rhamnose (20 uM) for 15 min; lysates incubated overnight at 4°C with anti-CEACAM1 (or anti-LGALS9) antibody, protein A/G agarose 3 h at 4°C, five washes with lysis buffer; western blot for p-Tyr and LGALS9

Substance: HA-tagged LGALS9 (from UniProt O00182-1 1-355)
- binding [1]: binds

Substance: galectin 9 (LGALS9), endogenous (from UniProt O00182 1-355)
- binding [2]: binds
